Measured values from publication PMC2965147.
No constants are given. Whether binding was seen depends on the method and setting. Some binding calls cover weakened binding; strength is not graded here.

Experiments:
wild-type synphilin-1 = wild-type synphilin-1 (UniProt Q9Y6H5); experiment: SDS-PAGE and Western blot of detergent-resistant membrane fractions (band size); yeast lysates in TNE buffer, 0.2% Triton X-100 on ice for 30 min, flotation on an OptiPrep gradient, nine fractions TCA-precipitated and blotted for synphilin-1; wild-type BY4741 and erg24Δ strains, with or without co-expressed α-Syn-EGFP
synphilin-1 R621C mutant = synphilin-1 R621C mutant (UniProt Q9Y6H5); experiment: as above
[1] = target: endogenous mouse synphilin-1 (mouse (endogenous in primary cortical neurons)) (UniProt Q99ME3); experiment: SDS-PAGE and Western blot of detergent-resistant membrane fractions (band size); lysates of 11 DIV mouse primary neuronal cultures in TBS with 1% Triton X-100 on ice for 30 min, sucrose gradient, eight fractions TCA-precipitated and blotted for synphilin-1

B1: wild-type synphilin-1 (protein, UniProt Q9Y6H5 1-919)
chain: MEAPEYLDLDEIDFSDDISYSVTSLKTIPELCRRCDTQNEDRSVSSSSWNCGISTLITNTQKPTGIADVYSKFRPVKRVSPLKHQPETLENNESDDQKNQKVVEYQKGGESDLGPQPQELGPGDGVGGPPGKSSEPSTSLGELEHYDLDMDEILDVPYIKSSQQLASFTKVTSEKRILGLCTTINGLSGKACSTGSSESSSSNMAPFCVLSPVKSPHLRKASAVIHDQHKLSTEETEISPPLVKCGSAYEPENQSKDFLNKTFSDPHGRKVEKTTPDCQLRAFHLQSSAAESKPEEQVSGLNRTSSQGPEERSEYLKKVKSILNIVKEGQISLLPHLAADNLDKIHDENGNNLLHIAASQGHAECLQHLTSLMGEDCLNERNTEKLTPAGLAIKNGQLECVRWMVSETEAIAELSCSKDFPSLIHYAGCYGQEKILLWLLQFMQEQGISLDEVDQDGNSAVHVASQHGYLGCIQTLVEYGANVTMQNHAGEKPSQSAERQGHTLCSRYLVVVETCMSLASQVVKLTKQLKEQTVERVTLQNQLQQFLEAQKSEGKSLPSSPSSPSSPASRKSQWKSPDADDDSVAKSKPGVQEGIQVLGSLSASSRARPKAKDEDSDKILRQLLGKEISENVCTQEKLSLEFQDAQASSRNSKKIPLEKRELKLARLRQLMQRSLSESDTDSNNSEDPKTTPVRKADRPRPQPIVESVESMDSAESLHLMIKKHTLASGGRRFPFSIKASKSLDGHSPSPTSESSEPDLESQYPGSGSIPPNQPSGDPQQPSPDSTAAQKVATSPKSALKSPSSKRRTSQNLKLRVTFEEPVVQMEQPSLELNGEKDKDKGRTLQRTSTSNESGDQLKRPFGAFRSIMETLSGNQNNNNNYQAANQLKTSTLPLTSLGRKTDAKGNPASSASKGKNKAA
binding (wild-type synphilin-1): binds

B2: synphilin-1 R621C mutant (protein, UniProt Q9Y6H5 1-919)
chain: MEAPEYLDLDEIDFSDDISYSVTSLKTIPELCRRCDTQNEDRSVSSSSWNCGISTLITNTQKPTGIADVYSKFRPVKRVSPLKHQPETLENNESDDQKNQKVVEYQKGGESDLGPQPQELGPGDGVGGPPGKSSEPSTSLGELEHYDLDMDEILDVPYIKSSQQLASFTKVTSEKRILGLCTTINGLSGKACSTGSSESSSSNMAPFCVLSPVKSPHLRKASAVIHDQHKLSTEETEISPPLVKCGSAYEPENQSKDFLNKTFSDPHGRKVEKTTPDCQLRAFHLQSSAAESKPEEQVSGLNRTSSQGPEERSEYLKKVKSILNIVKEGQISLLPHLAADNLDKIHDENGNNLLHIAASQGHAECLQHLTSLMGEDCLNERNTEKLTPAGLAIKNGQLECVRWMVSETEAIAELSCSKDFPSLIHYAGCYGQEKILLWLLQFMQEQGISLDEVDQDGNSAVHVASQHGYLGCIQTLVEYGANVTMQNHAGEKPSQSAERQGHTLCSRYLVVVETCMSLASQVVKLTKQLKEQTVERVTLQNQLQQFLEAQKSEGKSLPSSPSSPSSPASRKSQWKSPDADDDSVAKSKPGVQEGIQVLGSLSASSRARPKAKDEDSDKILCQLLGKEISENVCTQEKLSLEFQDAQASSRNSKKIPLEKRELKLARLRQLMQRSLSESDTDSNNSEDPKTTPVRKADRPRPQPIVESVESMDSAESLHLMIKKHTLASGGRRFPFSIKASKSLDGHSPSPTSESSEPDLESQYPGSGSIPPNQPSGDPQQPSPDSTAAQKVATSPKSALKSPSSKRRTSQNLKLRVTFEEPVVQMEQPSLELNGEKDKDKGRTLQRTSTSNESGDQLKRPFGAFRSIMETLSGNQNNNNNYQAANQLKTSTLPLTSLGRKTDAKGNPASSASKGKNKAA
binding (synphilin-1 R621C mutant): binds

B3: endogenous mouse synphilin-1 (protein, UniProt Q99ME3 1-962)
chain: MEAPEYLDLDEIDFSDDISYSVTSLKTIPALCRRCDSQNEDRSVSSSGWNCGVSTLITNPQKPTGIADVYSKFRPVKRVSPLKHQPETLENNENEDQKNNTVEYQKGGETDQGPQPEELSPEDGVGGLPGKGSEPSQALGELEHYDLDMDEILDVPYIKSSQQLAPLTKVTSEKRILGLCTTINGLSAKTCPIASTENSTPNMTPFCVLSPVKSPHLRKAPTALRDQHKLSTEDSESSPALGKCGPAYESENHSKDFLNKVFSDPHSRKIEKSGPDCKLRSFHLQSSAAGAKTEEPINGMNWTNTQGTEERTEYLKKVRSILNIVNEGQISLLPHLAADNLDKIHDENGNNLLHIAASKGHAECLQHLTSLMGEDCLNERNTEQLTPAGLAIKNGQLECVRWMVSETEAIAELSCSKDFPSLIHYAGCYGQEKILLWLLQFMQEQGISLDEVDREGNSAVHVASQHGYLGCIQTLVEYGANVTMQNHAGEKPSQSAERHGHTLCSRYLVVVETCMSLASQVVKLTKQLKEQTVERVTLQSQLQQLLEAQKSEGKSLPSSPSSPSSPASTKSQWKALDTDEESTGKSKVGAQEGIQVLGSLSVSSRARTKGKDEDSDKILRQLLGKEISENVCTQEKLSLEFQDAQASSRNSKKIPLEKRELKLARLRQLMQRSLSESDTDSNNSEDPKNTPVKRADRPRPQPIVESVENVDSAESLHLMIKKHSLASGRRFPFGMKASKSLDGHSPSPTSESSEPDLDSHGPGLGMTPPTQPSTEATQSSPDSTAAQKVATSPKSALKSPSSKRRTSQNSKLRVTFEEPVVQMEQTGLELNGEKDKDKGRAPQRTSESGEQMKRPFGTFRSIMESLSGNQNNNNNYQPASQLKTCTLPLTSLGRKTADAKGNPVSPASKGKNKAAMYSSCIHLPSNALVEEHLRDYARHNDIKRNATKTYHMKHTAEPEPRE
binding [1]: no binding
